Amino acid sequences for entries named in this document (tags omitted). Residues count along the entry.
UniProt P35384, 20-1085 limits assumed: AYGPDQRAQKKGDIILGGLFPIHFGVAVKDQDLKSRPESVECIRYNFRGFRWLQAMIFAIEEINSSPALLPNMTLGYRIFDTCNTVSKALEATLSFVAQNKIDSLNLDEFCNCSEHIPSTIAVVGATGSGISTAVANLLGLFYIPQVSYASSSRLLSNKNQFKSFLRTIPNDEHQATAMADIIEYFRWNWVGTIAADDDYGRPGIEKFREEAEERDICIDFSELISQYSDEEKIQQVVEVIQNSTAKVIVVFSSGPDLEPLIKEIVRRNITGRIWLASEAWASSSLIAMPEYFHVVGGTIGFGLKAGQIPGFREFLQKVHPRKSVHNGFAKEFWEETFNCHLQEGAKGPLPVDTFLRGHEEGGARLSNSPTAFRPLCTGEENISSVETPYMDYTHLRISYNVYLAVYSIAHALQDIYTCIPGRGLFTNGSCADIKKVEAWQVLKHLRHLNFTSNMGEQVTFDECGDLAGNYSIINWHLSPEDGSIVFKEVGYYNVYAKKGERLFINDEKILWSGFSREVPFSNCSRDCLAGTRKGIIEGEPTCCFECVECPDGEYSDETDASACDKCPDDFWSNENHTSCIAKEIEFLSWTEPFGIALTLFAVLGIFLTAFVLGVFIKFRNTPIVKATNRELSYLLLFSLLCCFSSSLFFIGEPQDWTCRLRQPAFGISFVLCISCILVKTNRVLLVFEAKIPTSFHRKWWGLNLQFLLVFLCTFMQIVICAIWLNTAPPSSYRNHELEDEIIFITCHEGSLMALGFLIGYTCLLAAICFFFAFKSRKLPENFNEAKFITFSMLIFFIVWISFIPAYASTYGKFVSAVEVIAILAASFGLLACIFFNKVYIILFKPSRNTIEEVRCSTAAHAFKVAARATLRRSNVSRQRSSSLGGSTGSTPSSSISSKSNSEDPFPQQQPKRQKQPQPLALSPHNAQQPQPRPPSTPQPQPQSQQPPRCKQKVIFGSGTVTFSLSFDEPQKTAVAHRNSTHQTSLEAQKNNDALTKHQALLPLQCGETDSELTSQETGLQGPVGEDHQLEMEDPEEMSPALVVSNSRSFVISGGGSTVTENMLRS

In patent publication EP0637237B1, “CALCIUM RECEPTOR-ACTIVE MOLECULES” (BRIGHAM AND WOMEN'S HOSPITAL, INC., priority 1993, dated 1994):

Target: parathyroid cell Ca^2+ receptor (Bos taurus, UniProt P35384)
Test: Mobilization of intracellular Ca2+ ([Ca2+]i, fura-2) in bovine parathyroid cells
Assay type: cell-based
Settings: low [Ca2+] 0.5 mM; 200 µM in Fig. 37

**Q.** With `NCCCCCCCCCCCCNC(=O)Cc1ccc(O)cc1O` as the compound, how does the “effect by itself on [Ca2+]i” value read?
**A.** does not by itself cause any change in [Ca^2+]i; also recorded: caused no change in [Ca^2+]i

Entries after “also recorded” stand apart in the source; their conditions may differ. A number of entries come with more than one value. This is not the full list of results. There may be further records. Values given together differ, and nothing given here explains why; they may come from other doses, times, organisms or constructs than stated.
